# From PubChem BioAssay AID504467 (National Center for Advancing Translational Sciences (NCATS), 2011)
# The campaign covered roughly 330,000 compounds. About 7,700 (2.3%) were called active. Inconclusive results, whose numbers are uncertain, are shown with a selection of clear calls. The call rests on the fitted dose curve; in most records, active means well fitted inhibition curve with a large enough effect; inconclusive means small, poorly fitted or top-dose-only effect, or effect the other way; inactive means flat fitted curve, though single readings scatter. A potency beside an inconclusive call is a rough fit, not a confirmed value.
# Assay: qHTS screen for small molecules that inhibit ELG1-dependent DNA repair in human embryonic kidney (HEK293T) cells expressing luciferase-tagged ELG1; further: nearly all actives have a fitted effect of over 55% in size
# Settings: HEK293T ELG1-luciferase reporter, luminescence, 16 h, DNA damage induced by 5-fluorouridine; activity change, negative = inhibition: at 46.1 µM (top of the series)
# Method in brief: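 Quantitative HTS, concentration-response format. 2,000 cells/well co-treated with 5-fluorouridine and compound, 16 hr in 5% CO2 at 37 °C; ONE-Glo luminescence read after 30 min.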
# On the % scale 0 is the no-effect control and ±100 the full control effect; potency means the concentration at half of the fitted maximal effect.
Structure (SMILES),Potency,"activity change, negative = inhibition"
Cc1cccc2cc(CN(CC3CCCO3)C(c3nnnn3Cc3ccco3)C(C)C)c(=O)[nH]c12 (stereo unspecified),"inconclusive: 29.1 µM [inhibitor, single point]",–
CCOC(=O)CN1C(c2ccc(O)cc2)Nc2ccc(Br)cc2C1c1ccccc1 (stereo unspecified),"inconclusive: 25.9 µM [inhibitor, single point]",–
CC(C)OC(=O)Cn1cnc2ccc(Br)cc2c1=O,"inconclusive: 18.4 µM [activator, partial curve, poor fit]",–
COC(=O)CNc1cc(S(=O)(=O)N2CCCCC2)ccc1Oc1cccc(C)c1,"inconclusive: 7.3 µM [inhibitor, full curve, poor fit]",–
C=CCc1c(C)[nH]c(=O)[nH]c1=O,–,inactive: -1.59%
Cc1c(NS(C)(=O)=O)cccc1-c1nc2cccnc2s1,"inconclusive: 29.1 µM [inhibitor, single point]",–
CCOC(=O)c1c(-c2ccccc2)csc1NC(=O)c1cc(S(=O)(=O)N2CCOCC2)ccc1C,active: 10.3 µM,–
O=C(NCCc1c[nH]c2ccccc12)/C(=C\c1cccs1)NC(=O)c1ccccc1,–,inactive: -19.5%
CC1(C)CC(=O)C(=Cc2cn(CCC#N)nc2-c2ccc(Cl)cc2)C(=O)C1,–,inactive: 10.9%
O=C(N/N=C/c1ccco1)c1ccccc1OCc1ccccc1Cl,"inconclusive: 29.1 µM [inhibitor, single point]",–
CCC(C)NC(=O)c1cn(CC)c2ccc(S(=O)(=O)N3CCCCCC3)cc2c1=O (stereo unspecified),active: 6.51 µM,–
Cc1cccc(NC(=O)CSc2nnnn2-c2cccnc2)c1,"inconclusive: 0.164 µM [inhibitor, full curve, poor fit]",–
CCN(CC)CCN1C(=O)C(=O)/C(=C(/O)c2ccc(OC)cc2)C1c1cccs1 (stereo unspecified),"inconclusive: 11.2 µM [activator, single point]",–
COc1ccc(SCC(=O)Nc2ccc(N3CCN(C)CC3)c(F)c2)cc1,"inconclusive: 20.6 µM [activator, single point]",–
CC1=C(C(=O)N2CCOCC2)C(c2ccc(Br)cc2)NC(=S)N1c1ccccc1 (stereo unspecified),–,inactive: -0.349%
COc1ccc(NC(=O)NCc2ccco2)cc1OC,–,inactive: 3.38%
O=C(NC(=O)c1cccc(F)c1)OC[C@@H]1CCCN2CCCC[C@H]12,–,inactive: 11.8%
COc1ccc(NC(=O)c2cccc(Cn3cc(Br)c([N+](=O)[O-])n3)c2)c(C)c1,"inconclusive: 25.9 µM [inhibitor, single point]",–
Cc1cc(NC(=O)CCN2C(=O)/C(=C/c3ccccc3Cl)SC2=S)no1,–,inactive: 16.2%
CCOc1ccc(NC(=O)CCCOc2cc(=O)n(C)c3ccccc23)cc1,"inconclusive: 20.6 µM [activator, single point]",–
Cc1ccc(C(=O)N[C@H](C(=O)Nc2sccc2C(N)=O)C(C)C)cc1,"inconclusive: 6.51 µM [activator, single point]",–
COc1ccc(CNc2cc(C)ccn2)cc1,"inconclusive: 16.4 µM [activator, single point]",–
Cc1ccc(NC(=O)C2CCCN2S(=O)(=O)c2ccc3c(c2)CCC(=O)N3)cc1Cl (stereo unspecified),"inconclusive: 23.1 µM [inhibitor, partial curve, poor fit]",–

# Reprinted from the entries so far, 2 compounds:
Structure (SMILES),Potency,"activity change, negative = inhibition"
C=CCc1c(C)[nH]c(=O)[nH]c1=O,–,inactive: -1.59%
Cc1c(NS(C)(=O)=O)cccc1-c1nc2cccnc2s1,"inconclusive: 29.1 µM [inhibitor, single point]",–

# Shown bar-delimited: part of the list above
Structure (SMILES) | Potency | activity change, negative = inhibition
COC(=O)CNc1cc(S(=O)(=O)N2CCCCC2)ccc1Oc1cccc(C)c1 | inconclusive: 7.3 µM [inhibitor, full curve, poor fit] | –
C=CCc1c(C)[nH]c(=O)[nH]c1=O | – | inactive: -1.59%

# More compounds

Structure (SMILES),Potency,"activity change, negative = inhibition"
OC1CCCN(Cc2ccc3c(c2)Cc2ccccc2-3)C1 (stereo unspecified),"inconclusive: 16.4 µM [activator, single point]",–
CC1CCc2sc(C(=O)N3CCC(C(N)=O)CC3)cc2C1 (stereo unspecified),"inconclusive: 17.8 µM [activator, partial curve]",–
O=C(Nc1ccccn1)C1CCN(S(=O)(=O)c2ccc3c(c2)OCCO3)CC1,"inconclusive: 18.3 µM [activator, partial curve]",–
CC(=O)N1CC(C)Sc2ccc(S(=O)(=O)NCCc3ccccc3)cc21 (stereo unspecified),–,inactive: 19.4%
COc1ccc(N2CCN(C(=O)CCCCCn3c(=S)[nH]c4cc5c(cc4c3=O)OCO5)CC2)cc1,–,inactive: 12.7%
CCOC(=O)N1CCN(C(=O)CSc2nc3ccccc3c(=O)n2-c2ccccc2)CC1,"inconclusive: 18.4 µM [inhibitor, single point]",–
CC1=C(C(=O)Nc2cccc(C(=O)NC3CCCCC3C)c2)SCCO1 (stereo unspecified),"inconclusive: 25.9 µM [inhibitor, partial curve, poor fit]",–
O=[N+]([O-])/C=C/c1cn(Cc2ccc(F)cc2)c2ccccc12,"inconclusive: 20.6 µM [inhibitor, single point]",–
O=c1c2ccccc2[nH]c(=S)n1Cc1ccccc1Cl,–,inactive: 17.6%
CCOC(=O)CC(NC(=O)Cn1nnc(-c2ccccc2F)n1)c1ccc(OC)cc1 (stereo unspecified),"inconclusive: 23.1 µM [inhibitor, single point]",–
Cc1ccc(S(=O)(=O)N2CCN(C(=O)c3c(C)nn(-c4ccccc4)c3Cl)CC2)cc1,"inconclusive: 29.1 µM [inhibitor, single point]",–
O=c1cc(-c2ccccc2)nc(/C=C/c2ccccc2)[nH]1,–,inactive: 8.67%
COc1cc(-c2noc(C)c2C(=O)NCCCN2CCCC2=O)cc(OC)c1OC,"inconclusive: 25.9 µM [activator, single point]",–
Cc1ccc2c3c1C(=O)C(=O)N3C(C)(C)CC2C (stereo unspecified),–,inactive: -3.68%
CCN(CC)C(=O)[C@H]1CC(CC(=O)NCCC2=CCCCC2)C(=O)N2CCc3c([nH]c4ccc(OC)cc34)[C@]12C (stereo partly specified),–,inactive: -7.61%
CN(CC(=O)Nc1ccc(Cl)cc1)C(=O)CNC(=O)c1ccc(Br)o1,–,inactive: 12.4%
CC1CCC(NC(=O)C2c3ccccc3C(=O)N2CCCN2CCOCC2)CC1 (stereo unspecified),"inconclusive: 18.4 µM [activator, partial curve, poor fit]",–
COc1cccc(Nc2nc3ccccc3n2C(C)C)c1,–,inactive: -3.09%
Cc1ccc(CN2C(=O)CSc3ccc(C(=O)NC4CC4)cc32)cc1,–,inactive: 6.06%
COc1ccc(CNC(=O)[C@H](C)NC(=O)C2CCN(C(=O)[C@@H](N)CCSC)CC2)cc1,"inconclusive: 0.517 µM [activator, single point]",–
COc1cc(C(=O)Nc2ccc3nc4n(c(=O)c3c2)CCCC4)ccc1Br,–,inactive: -4.6%
Cc1ccnc(SCC(=O)N2CCCc3ccccc32)n1,–,inactive: 18.1%
Cc1ccc(O)c(/C=N/NC(=O)CN2CCCC2)c1,–,inactive: -6.01%
